According to paper PMC7819943, “Rice protein-binding microarrays: a tool to detect cis-acting elements near promoter regions in rice”:
Some of the results follow.

Chains of the proteins cited; added tags and fusions are not shown.
UniProt Q0JBA9, entry or part of it: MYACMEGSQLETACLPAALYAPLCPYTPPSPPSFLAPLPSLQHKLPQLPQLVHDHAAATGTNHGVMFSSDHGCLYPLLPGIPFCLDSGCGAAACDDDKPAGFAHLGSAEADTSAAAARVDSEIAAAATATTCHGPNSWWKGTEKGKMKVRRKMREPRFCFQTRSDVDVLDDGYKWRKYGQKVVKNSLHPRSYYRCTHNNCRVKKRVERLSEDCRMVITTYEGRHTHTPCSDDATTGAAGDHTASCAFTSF

Target: OsWRKY34 (Oryza sativa, UniProt Q0JBA9 1-250)
Assay: protein-binding microarray (RPBM); PBS, 2% BSA, 51.3 ng/ul salmon testes DNA, 50 uM zinc acetate, 200 nM TF, 25 C, 1 h; high values mean tight binding
Details: protein: recombinant; tags: N-terminal polyhistidine and DsRed monomer fusion (pET32a); label: CyDye5-dUTP incorporated in the synthesized complementary strand; 3' TTTTT single-stranded linker to array surface; dsDNA, one strand shown
In short: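 Binding signal is reported as fluorescence intensity per feature (arbitrary units) from an Axon 4000B scanner. Incubation used 200 nM of each Ni–NTA-purified, N-terminally polyhistidine- and DsRed-fused transcription factor from E. coli BL21-CodonPlus on a double-stranded custom Agilent array for 1 h at 25 °C, with 50 µM zinc acetate in the buffer, followed by washing.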

| Sequence | binding signal |
| --- | --- |
| TAGATGTTTACTAGTACTCCCCGTTGAATAGTCCCACATTCGGAGTCACCTAGTGCAG | 8050 fluorescence intensity (a.u.) |
| TTTTCACCGTCGTTGGTCTGCAGGCGGTTCTCCCCTCTACCGGAGTCACCTAGTGCAG | 8490 fluorescence intensity (a.u.) |
| TCCCCAGGGGAATCGGACTCTTTTTGTTTTGTTTTTTTTTCGGAGTCACCTAGTGCAG | 9420 fluorescence intensity (a.u.) |
| ACTGCTGCTGCATCGGCGCCTTCACCAAGATGTCAACGGACGGAGTCACCTAGTGCAG | 8350 fluorescence intensity (a.u.) |
| CCTCATCACTCGCTTCTCCTTGCTTACACACCATCCCATCCGGAGTCACCTAGTGCAG | 8310 fluorescence intensity (a.u.) |
| GAGCTACCCTACGCCTGCTCTACTTGGCGAAGCCCAGCACCGGAGTCACCTAGTGCAG | 8190 fluorescence intensity (a.u.) |
| GCCCAACTCCCATCTTCCCTTTTGTTGTTTTCCCTGGGTACGGAGTCACCTAGTGCAG | 8220 fluorescence intensity (a.u.) |
| TGGTTTGTATTAATTTGTTCATTTCCGATTCAATTTTATTCGGAGTCACCTAGTGCAG | 8080 fluorescence intensity (a.u.) |
| GCAGCTCAAAAAGCTAGCTACTTGTTTCTGACTTGTATCACGGAGTCACCTAGTGCAG | 8560 fluorescence intensity (a.u.) |
| GAGAGCGAACGGCCGTCTGCCACGTCATTTTCGCCGCCCTCGGAGTCACCTAGTGCAG | 8310 fluorescence intensity (a.u.) |
| CTTCTTCTTCTTCTTTCTTGCAATTTGAGGAGGTTTGCTCCGGAGTCACCTAGTGCAG | 8420 fluorescence intensity (a.u.) |
| ATCCCTATAAGTTTTTCCTGTGTTCTGTAACCTTATATTTCGGAGTCACCTAGTGCAG | 8200 fluorescence intensity (a.u.) |
| CGCGAGTGGTGGAGGAGGTGGTGGTTAATAACTGGTTAATCGGAGTCACCTAGTGCAG | 8550 fluorescence intensity (a.u.) |
| TGCGCTGGCGGGCCTTGTTAGTCGTACCCCATCGGCACTCCGGAGTCACCTAGTGCAG | 8770 fluorescence intensity (a.u.) |
| GGACTATTTCTGGGATAAGTTTTTTCAGGGGTCTATTTATCGGAGTCACCTAGTGCAG | 9380 fluorescence intensity (a.u.) |
| TTTTATATCATCGGGCGTCCGATTTGTAGCTCTCTCCGAACGGAGTCACCTAGTGCAG | 8730 fluorescence intensity (a.u.) |
| ATATTACCGACCAAGTCGTTCTTCACTGATATTAATAGTTCGGAGTCACCTAGTGCAG | 8350 fluorescence intensity (a.u.) |
| ACACTCGGCGCGCTCTTGTACACCAATTCACACACACATTCGGAGTCACCTAGTGCAG | 14500 fluorescence intensity (a.u.) |
| CCTCTCGTCTCGCTCGTCGCGGCCACCTCTCTTTCTCTCTCGGAGTCACCTAGTGCAG | 11400 fluorescence intensity (a.u.) |
| TGTCTTTGCCCTTTTATTTCGTAGTAGGTCATAACTAAACCGGAGTCACCTAGTGCAG | 8340 fluorescence intensity (a.u.) |
| TCGTATCCTAGCCCATATATTTTTACAGATTCGGGTTCAACGGAGTCACCTAGTGCAG | 11000 fluorescence intensity (a.u.) |
| GTAGTGGTGGAGCTCAGGACAGATAGTGCTACGAGGGAACCGGAGTCACCTAGTGCAG | 8120 fluorescence intensity (a.u.) |
| CGTTGGTCTTCCCGCCGCTCGCCATTGACCATCGCCCATGCGGAGTCACCTAGTGCAG | 8070 fluorescence intensity (a.u.) |
| AAGTTTATATTGTTTAGCTATCTTACACATTATTTTTACTCGGAGTCACCTAGTGCAG | 8780 fluorescence intensity (a.u.) |
| CCGGACCGGCCGCCGCTTACGATTATAATGATCATTATTTCGGAGTCACCTAGTGCAG | 8530 fluorescence intensity (a.u.) |
| ATGGAGTACAGTTGCGCTGTTTGTTTCAGCCTTTCAGGTGCGGAGTCACCTAGTGCAG | 9290 fluorescence intensity (a.u.) |
| AATCTATGCCATTATAATTTGGTACCACAATGATTGATCACGGAGTCACCTAGTGCAG | 9040 fluorescence intensity (a.u.) |

| Sequence | binding signal |
| --- | --- |
| AGACGTTTTGACTTTGGTACTGCTTTAAGTTTGACCAAATCGGAGTCACCTAGTGCAG | 9960 fluorescence intensity (a.u.) |
| GACCTAGCTTACTACCGTACCGACCTGCATGCTAGCTACCCGGAGTCACCTAGTGCAG | 8690 fluorescence intensity (a.u.) |
| GTCTGCTGTCTGCACTCTGGTGATCTAATGTATCATTTTCCGGAGTCACCTAGTGCAG | 11400 fluorescence intensity (a.u.) |
| TCCAGCTGCTGCATCCACCTCACTGCCGTCGCCGCCGCCGCGGAGTCACCTAGTGCAG | 8400 fluorescence intensity (a.u.) |
| TCTGCGAGGAAGAACCCATTCAGATTACGCTGCATTTTTTCGGAGTCACCTAGTGCAG | 8660 fluorescence intensity (a.u.) |
| GTCCCATGCAAATGCAACAATATTTTCTGCATGCATTTTTCGGAGTCACCTAGTGCAG | 8230 fluorescence intensity (a.u.) |
| CGCCCTCCGCCGCTCGCCCGCCGACGCCGCCGCTCCGCCTCGGAGTCACCTAGTGCAG | 10500 fluorescence intensity (a.u.) |
| GTTTCTCTCCGTTTCGTTTCGGGCCTGTTCACTTTGATGTCGGAGTCACCTAGTGCAG | 9210 fluorescence intensity (a.u.) |
| GAGAACCTTCAGATTTTTTTTCTTTTCTCTTCGGTAACCACGGAGTCACCTAGTGCAG | 9500 fluorescence intensity (a.u.) |
| ATATGCTATTTTCACGTTCCATTAATTATGTCATAAACTGCGGAGTCACCTAGTGCAG | 9090 fluorescence intensity (a.u.) |
| CTGAGTTCCCAAGAGTTCTCTTTCTGCACATAGTCCCTACCGGAGTCACCTAGTGCAG | 8960 fluorescence intensity (a.u.) |
| TTCTAGTATTCCCCTTGAAATTGGCATGGTTATTTCATCCCGGAGTCACCTAGTGCAG | 10500 fluorescence intensity (a.u.) |
| GCCGCTAACCCTTGTACTGCGCCGCCGCCTGCTGCACTGACGGAGTCACCTAGTGCAG | 14700 fluorescence intensity (a.u.) |
| GTCCGCGTCTCATCAGAATAAGCAGCTAGCAGCATCTGCACGGAGTCACCTAGTGCAG | 9090 fluorescence intensity (a.u.) |
| ACCATTATACACTCACATTTTTCAATATTTTTTCTTAATTCGGAGTCACCTAGTGCAG | 9040 fluorescence intensity (a.u.) |
| GCGAACTCCTCCGCCGTGTTCCGAATCTCGCCAAAGCTTGCGGAGTCACCTAGTGCAG | 9510 fluorescence intensity (a.u.) |
| ATAAACCAGTGACTAATTTATTGCCTGCTGCACACGCGCTCGGAGTCACCTAGTGCAG | 8990 fluorescence intensity (a.u.) |
| TAAACACCATTTCCACCCCTACATACACTCACACACACGTCGGAGTCACCTAGTGCAG | 9420 fluorescence intensity (a.u.) |
| TGATGATTTAACTGTGTTGCATGAATTCATTCCTATTTGACGGAGTCACCTAGTGCAG | 8400 fluorescence intensity (a.u.) |
| GTGTGTGTATGACAGGTGGGACCATATATTAATAGTGTAGCGGAGTCACCTAGTGCAG | 8230 fluorescence intensity (a.u.) |
| AATCTAACTTCTCTATATTCTCCTGTGCTTACAACTCATACGGAGTCACCTAGTGCAG | 8860 fluorescence intensity (a.u.) |
| GTAAGAAAAAGTCAACGGTATCATCTATTGAAAAACGTAGCGGAGTCACCTAGTGCAG | 8150 fluorescence intensity (a.u.) |
| TTCGGGGATTGAATTTAGGCTATCTGTTGGAGAGAGGGGTCGGAGTCACCTAGTGCAG | 8050 fluorescence intensity (a.u.) |
| GTGTGTTGGAGCTGCCGGTGTGTGGGTGGGGTTATTTTTTCGGAGTCACCTAGTGCAG | 25100 fluorescence intensity (a.u.) |
| TCTGTAGCTCGCTATTCTTTTCTCTTCTTTTATTTCCTTGCGGAGTCACCTAGTGCAG | 8850 fluorescence intensity (a.u.) |
| ACTCAACCCAGTACACACACTCCACCTAATCTTCTTCTCCCGGAGTCACCTAGTGCAG | 10100 fluorescence intensity (a.u.) |
| TACCCTTATACTTTTTTATTACTTGCCTGCTACTCTACTTCGGAGTCACCTAGTGCAG | 11300 fluorescence intensity (a.u.) |

Shown in CSV form: part of the list above.
Sequence,binding signal
GAGCTACCCTACGCCTGCTCTACTTGGCGAAGCCCAGCACCGGAGTCACCTAGTGCAG,8190 fluorescence intensity (a.u.)
GCCCAACTCCCATCTTCCCTTTTGTTGTTTTCCCTGGGTACGGAGTCACCTAGTGCAG,8220 fluorescence intensity (a.u.)
